PubChem BioAssay AID1964107 (National Center for Advancing Translational Sciences (NCATS), 2024)
Shown are results outside the selection of hits, which stands elsewhere. Records with an inconclusive call do not appear. Calls of active or inactive are those of the source. Calls follow the shape of the full dose curve.

By UniProt entry, the sequences of proteins in these tests, tags left out. Where a name states a change or a piece, a line headed by the entry shows the natural chain unless it says otherwise.
UniProt Q8JUX6: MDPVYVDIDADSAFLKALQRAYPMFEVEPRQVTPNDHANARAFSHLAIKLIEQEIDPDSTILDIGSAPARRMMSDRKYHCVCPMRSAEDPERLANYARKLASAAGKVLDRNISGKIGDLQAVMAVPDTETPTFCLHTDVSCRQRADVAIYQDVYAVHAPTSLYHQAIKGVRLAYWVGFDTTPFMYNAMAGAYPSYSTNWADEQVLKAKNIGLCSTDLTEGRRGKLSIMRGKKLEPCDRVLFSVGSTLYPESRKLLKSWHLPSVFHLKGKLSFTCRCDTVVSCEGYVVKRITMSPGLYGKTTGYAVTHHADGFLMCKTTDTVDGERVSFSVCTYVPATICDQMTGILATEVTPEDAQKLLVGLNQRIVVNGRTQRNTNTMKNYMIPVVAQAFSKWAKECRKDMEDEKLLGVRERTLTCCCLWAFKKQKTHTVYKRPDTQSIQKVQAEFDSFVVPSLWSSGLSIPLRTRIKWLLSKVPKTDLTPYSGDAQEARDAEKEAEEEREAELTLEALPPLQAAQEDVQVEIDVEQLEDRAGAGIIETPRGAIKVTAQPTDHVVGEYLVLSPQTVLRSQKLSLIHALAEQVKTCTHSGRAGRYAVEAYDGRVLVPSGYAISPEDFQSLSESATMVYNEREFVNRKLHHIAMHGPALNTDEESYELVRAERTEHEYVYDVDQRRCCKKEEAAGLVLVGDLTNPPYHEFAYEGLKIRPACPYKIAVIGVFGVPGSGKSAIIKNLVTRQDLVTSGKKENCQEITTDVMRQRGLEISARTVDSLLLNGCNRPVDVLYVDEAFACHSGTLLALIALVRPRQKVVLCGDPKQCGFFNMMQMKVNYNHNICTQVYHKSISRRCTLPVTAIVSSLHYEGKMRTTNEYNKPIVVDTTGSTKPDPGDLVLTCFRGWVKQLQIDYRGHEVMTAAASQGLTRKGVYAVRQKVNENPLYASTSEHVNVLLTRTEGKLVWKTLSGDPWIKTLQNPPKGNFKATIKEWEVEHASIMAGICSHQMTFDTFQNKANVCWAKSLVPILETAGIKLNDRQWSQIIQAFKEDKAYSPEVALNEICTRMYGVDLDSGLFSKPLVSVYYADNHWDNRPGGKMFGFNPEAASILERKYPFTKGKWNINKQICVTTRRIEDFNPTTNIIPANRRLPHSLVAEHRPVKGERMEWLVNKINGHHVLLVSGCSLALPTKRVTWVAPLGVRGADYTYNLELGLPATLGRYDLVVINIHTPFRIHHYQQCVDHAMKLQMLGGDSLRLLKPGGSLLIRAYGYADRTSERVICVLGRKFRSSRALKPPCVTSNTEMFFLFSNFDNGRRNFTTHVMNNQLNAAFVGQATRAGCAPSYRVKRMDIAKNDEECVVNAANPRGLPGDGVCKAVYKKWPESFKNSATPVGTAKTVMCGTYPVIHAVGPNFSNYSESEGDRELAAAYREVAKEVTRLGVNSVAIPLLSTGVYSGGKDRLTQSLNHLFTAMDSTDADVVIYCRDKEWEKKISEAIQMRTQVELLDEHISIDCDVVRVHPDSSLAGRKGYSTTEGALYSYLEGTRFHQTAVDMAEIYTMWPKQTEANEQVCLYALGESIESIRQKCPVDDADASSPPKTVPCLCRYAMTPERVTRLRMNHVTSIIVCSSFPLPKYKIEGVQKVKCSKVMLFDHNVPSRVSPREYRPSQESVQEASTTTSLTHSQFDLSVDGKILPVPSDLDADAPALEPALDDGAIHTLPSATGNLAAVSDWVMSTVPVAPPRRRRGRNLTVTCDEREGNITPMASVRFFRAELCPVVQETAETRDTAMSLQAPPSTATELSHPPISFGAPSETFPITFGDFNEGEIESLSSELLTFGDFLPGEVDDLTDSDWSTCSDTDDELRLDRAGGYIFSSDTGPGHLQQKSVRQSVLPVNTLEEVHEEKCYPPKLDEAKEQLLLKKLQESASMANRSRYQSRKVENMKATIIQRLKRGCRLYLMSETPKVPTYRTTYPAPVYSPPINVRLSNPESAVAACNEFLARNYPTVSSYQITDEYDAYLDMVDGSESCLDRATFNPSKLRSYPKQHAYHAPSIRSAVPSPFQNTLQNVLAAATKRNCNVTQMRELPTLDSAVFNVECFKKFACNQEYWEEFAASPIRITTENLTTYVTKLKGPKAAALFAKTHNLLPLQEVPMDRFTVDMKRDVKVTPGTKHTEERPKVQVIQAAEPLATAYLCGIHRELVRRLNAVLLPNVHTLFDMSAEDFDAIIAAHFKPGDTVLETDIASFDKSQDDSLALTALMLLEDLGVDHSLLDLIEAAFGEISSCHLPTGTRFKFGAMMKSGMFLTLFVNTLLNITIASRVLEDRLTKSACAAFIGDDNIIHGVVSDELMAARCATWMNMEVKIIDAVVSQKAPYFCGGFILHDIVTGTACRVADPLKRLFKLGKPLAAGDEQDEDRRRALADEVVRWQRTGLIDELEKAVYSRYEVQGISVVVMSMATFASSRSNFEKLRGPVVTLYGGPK

target: Polyprotein P1234 (Chikungunya virus (strain S27-African prototype)) (UniProt Q8JUX6); test: Primary qHTS for inhibitors of NSP2Pro chikungunya virus (CHIKV); details: FRET peptide cleavage, fluorescence 1 h; at 24.9 µM (top of the series); also: nearly all actives have a fitted effect of over 60% in size
Text: PI: Natalia J. Martinez Ph.D. National Center for Advancing Translational Sciences (NCATS), National Institute of Health (NIH), Rockville, Maryland Chikungunya virus (CHIKV) is a mosquito-borne RNA virus that has emerged as one of the most important global arboviral threats in the last decade. Although the first CHIKV vaccine has recently been FDA approved for use in healthy adults at increased risk, to date, there are no available antiviral drugs for CHIKV infection. CHIKV nsP2 protease plays a crucial role in the processing of the viral polypeptide precursor to release enzymes required for viral replication, thus making it a promising drug target for antiviral discovery. Here, we established a high-throughput pipeline to identify small molecule inhibitors of nsP2 proteolytic activity. The pipeline is composed of a suite of 1,536-well in vitro assays to support quantitative high-throughput (qHTS) screening campaigns. Specifically, we developed a fluorescence resonance energy transfer (FRET)-based assay using a fluorogenic peptide substrate encompassing an endogenous cleavage site and purified recombinant protease domain (nsP2pro). Using this assay, we interrogated ~37,000 small molecules, including those in drug repurposing libraries as well as chemically diverse and medicinal chemistry-friendly compounds. Hits were selected for follow-up validation against full-length nsP2 and an additional peptide. FRET-based 1,536-well assays for papain, hepatitis C virus NS3-4A, and human furin proteases were implemented to characterize compound selectivity. […] Novel compounds were identified to be potential nsP2 inhibitors and molecular docking analyses were performed to explain the binding mode of selected hits. In vitro antiviral activity was evaluated for a subset of compounds using a high-throughput CHIKV infection assay. To our knowledge, the pipeline presented here is unprecedented for CHIKV antiviral discovery research.
PROTOCOL TABLE (as described by Inglese J, Shamu CE and Guy RK. 2007) SEQUENCE No. (e.g., 1, 2, 3, etc.); […] (e.g., Cells, Incubation, Reagent, etc.); VALUE; DESCRIPTION. 1; Control / Compound; 20 nL; Echo 655 acoustic dispenser, Greiner 1536-well solid bottom black plate. 2; Enzyme; 4 uL; BioRAPTR FRD liquid dispenser (Beckman Coulter). 3; Incubation; 15 min; room temperature. 4; Reagent; 4 uL; 2.5 uM Peptide 2 substrate. 5; Incubation; 1 hr; room temperature. 6; Detection; Fluorescence; WiewLux microplate reader (PerkinElmer), 525 nm excitation, 598/25 nm emission. NOTES (numbers refer to sequence numbers above). 1. Briefly, 20 nL DMSO, positive control ZnAc (20nM final concentration), and test compounds were transferred into a 1,536-well solid bottom black plate (789176-F, Greiner One) via Echo 655 acoustic dispenser (Beckman Coulter). For primary screens, compounds were tested at 7 concentrations, 1:3 dilution points ranging from 25 uM to 34 nM. Follow-up confirmatory screens were carried out at 11 concentrations, 1:3 dilution points from 25 uM to 0.42 nM. 2. […] After 1 hour, plates were immediately read on a ViewLux high-throughput CCD imager (Exposure = 10 sec, Gain = High, Speed = Slow, Binning = 2X). The above assay was also incorporated in the NCATS HTS facility41, which allowed for robotic liquid and compound dispensing, microplate handling, and fluorescence reading.. […]
% is scaled to controls: 0 for no effect and ±100 for the full control effect.

Structure (SMILES) | activity change, negative = inhibition
CN1[C@@H]2CC(OC(=O)[C@H](CO)c3ccccc3)C[C@H]1[C@@H]1O[C@@H]12 (stereo not given in full) | inactive: 1.97%
CN(C)/C(N)=N/C(=N)N | inactive: -6.73%
C[N+]1(C)CCC(OC(=O)C(O)(c2ccccc2)C2CCCC2)C1 (stereo not given) | inactive: 15.4%
Cc1cnc(C(=O)NCCc2ccc(S(=O)(=O)NC(=O)NC3CCCCC3)cc2)cn1 | inactive: 18.7%
O=C(c1ccccc1)c1ccccc1 | inactive: -1.41%
